Measurements reported in PubChem BioAssay AID1224831 (NIAID, 2016)
The whole screen tested about 3,500 reagents; below is a part drawn at random. In the full data, 731 (21%) are marked active. 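Active means either lowered or raised reporter signal; the gene-median score did not drive the per-siRNA calls.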 A number with no mark means an inactive call. Reagents against one gene are numbered here.

- Test: 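Retesting screen hits on the TLR4-driven TNF response with six separate siRNAs each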 (follow-up of hits)
- Cell system: human THP-1 B5 monocytic leukaemia cells carrying a TNF promoter luciferase reporter, made macrophage-like with PMA
- Knock-down reagent: single siRNA against human genes, 50 nM
- Timing: about 68 h of knock-down, then 4 h LPS
- Treatment: LPS (Salmonella minnesota, TLR-grade) at 10 ng/ml for 4 h; PMA 5 ng/ml present during knock-down
- Read-out: 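Firefly to renilla luciferase ratio of a TNF promoter reporter after 4 h LPS, scaled to plate median, turned into robust z-score, averaged over replicates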
- Reading the numbers: TNF reporter z-score: higher = stronger LPS-induced TNF reporter signal; z-score, median over gene's siRNAs: higher = stronger TNF reporter signal across the gene's siRNAs
- Rule for the call: 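Active when the replicate mean z-score is about -1 or lower, or about 1.5 or higher; lowered and raised TNF reporter signal both count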
- Meaning of the calls: active = changed TNF reporter (either direction); inactive = little change

"TNF reporter z-score, replicate mean","z-score, median over gene's siRNAs",target,siRNA no.
-0.11,1.28,HECA,1
0.72,1.28,HECA,2
2.42 (active),1.28,HECA,3
-0.57,1.28,HECA,4
1.84 (active),1.28,HECA,5
3.47 (active),1.28,HECA,6
-0.56,0.23,TTK,1
0.07,0.23,TTK,2
0.54,0.23,TTK,3
0.8,0.23,TTK,4
0.39,0.23,TTK,5
-0.39,0.23,TTK,6
-0.09,0.295,MCRIP2,1
0.62,0.295,MCRIP2,2
0.61,0.295,MCRIP2,3
-0.02,0.295,MCRIP2,4
2.02 (active),0.295,MCRIP2,5
-0.41,0.295,MCRIP2,6
1.83 (active),0.41,KLF12,1
0.66,0.41,KLF12,2
-0.59,0.41,KLF12,3
-0.18,0.41,KLF12,4
1.71 (active),0.41,KLF12,5
0.16,0.41,KLF12,6
-1.67 (active),-0.82,EIF4G1,1
-2.55 (active),-0.82,EIF4G1,2
-0.62,-0.82,EIF4G1,3
-0.89,-0.82,EIF4G1,4
1.14,-0.82,EIF4G1,5
-0.75,-0.82,EIF4G1,6
-1.79 (active),-1.31,BCL2,1
-2.01 (active),-1.31,BCL2,2
-0.92,-1.31,BCL2,3
-1.71 (active),-1.31,BCL2,4
0.52,-1.31,BCL2,5
0.7,-1.31,BCL2,6
0.61,0.33,DENND5A,1
0.24,0.33,DENND5A,2
-0.71,0.33,DENND5A,3
0.42,0.33,DENND5A,4
-0.88,0.33,DENND5A,5
1.07,0.33,DENND5A,6
-0.42,-0.235,UBE3D,1
-0.77,-0.235,UBE3D,2
-1.53 (active),-0.235,UBE3D,3
0.25,-0.235,UBE3D,4
-0.05,-0.235,UBE3D,5
0.22,-0.235,UBE3D,6
0.66,-0.21,IGDCC3,1
-0.88,-0.21,IGDCC3,2
-1.13 (active),-0.21,IGDCC3,3
-0.32,-0.21,IGDCC3,4
1.59 (active),-0.21,IGDCC3,5
-0.1,-0.21,IGDCC3,6
-0.84,0.245,SYT1,1
0.21,0.245,SYT1,2
0.28,0.245,SYT1,3
-0.25,0.245,SYT1,4
0.96,0.245,SYT1,5
0.54,0.245,SYT1,6
0.89,1.55,WDR5B,1
1.38,1.55,WDR5B,2
2.12 (active),1.55,WDR5B,3
1.73 (active),1.55,WDR5B,4
0.92,1.55,WDR5B,5
2.15 (active),1.55,WDR5B,6
1.43,0.115,PDZD4,1
-1.56 (active),0.115,PDZD4,2
1.01,0.115,PDZD4,3
-1.97 (active),0.115,PDZD4,4
0.3,0.115,PDZD4,5
-0.07,0.115,PDZD4,6
-0.53,0.5,PRKAG3,1
-0.23,0.5,PRKAG3,2
-0.02,0.5,PRKAG3,3
1.02,0.5,PRKAG3,4
1.12,0.5,PRKAG3,5
6.66 (active),0.5,PRKAG3,6
0.2,0.315,SERPINB10,1
0.96,0.315,SERPINB10,2
0.39,0.315,SERPINB10,3
-0.62,0.315,SERPINB10,4
0.31,0.315,SERPINB10,5
0.32,0.315,SERPINB10,6

4 neighbouring reagents from above, for reference:
"TNF reporter z-score, replicate mean","z-score, median over gene's siRNAs",target,siRNA no.
-0.77,-0.235,UBE3D,2
-1.53 (active),-0.235,UBE3D,3
0.25,-0.235,UBE3D,4
-0.05,-0.235,UBE3D,5
